Common to all, as to assay: filter binding
The target in series [1] is glycoprotein hormone common alpha-subunit (UniProt P01215). The note with it: 2'-NH2 all pyrimidines; purified native protein; protein details: UCB-bioproducts; label: 32P.
Series [2] has as its target hTSH beta-subunit (Homo sapiens) (UniProt P01222). The note with it: 2'-NH2 all pyrimidines; purified native protein; label: 32P.
In series [3] the test system is human luteinizing hormone (hLH) (Homo sapiens). Particulars: purified native protein, label: 32P.
The test system of series [4] is human chorionic gonadotropin (hCG) heterodimer (Homo sapiens). Particulars: 2'-F all pyrimidines, range for the group, individual value not shown, purified native protein, protein details: Calbiochem or Vitro Diagnostics (14,000 IU/mg), label: 32P.

Chains of the proteins cited; added tags and fusions are not shown. Chains listed by the source or under a name are the forms on record and can include a tag or linker. Residues count along the entry.
UniProt P01215, 25-116: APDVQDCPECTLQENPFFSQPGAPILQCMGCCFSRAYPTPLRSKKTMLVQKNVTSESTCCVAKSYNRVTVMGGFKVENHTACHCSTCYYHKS
UniProt P01222, 21-132: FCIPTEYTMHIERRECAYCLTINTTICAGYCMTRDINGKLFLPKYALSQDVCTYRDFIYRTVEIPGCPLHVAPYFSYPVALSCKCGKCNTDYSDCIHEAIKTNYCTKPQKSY
human luteinizing hormone (hLH) (Homo sapiens), one chain, as listed by the source, chain 1 of 2: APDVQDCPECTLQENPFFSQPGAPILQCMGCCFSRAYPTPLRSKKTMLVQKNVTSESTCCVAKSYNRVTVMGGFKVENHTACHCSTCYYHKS
human luteinizing hormone (hLH) (Homo sapiens), one chain, as listed by the source, chain 2 of 2: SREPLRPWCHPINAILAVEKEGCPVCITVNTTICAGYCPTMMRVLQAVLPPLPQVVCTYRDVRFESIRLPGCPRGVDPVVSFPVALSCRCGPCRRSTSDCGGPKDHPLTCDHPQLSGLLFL

For some assays here: Construct, isoform or probe ends are uncertain for at least one entry.

For the sequence “GGGAGGACGAUGCGGAUGUUGGCAGCAGGGUCCGACGGCGUAACCUUGCCAGCUGCAGACGACUCGCCCGA [T-15]”, the dissociation constant (Kd) in series [1] was above 3.6 µM; in series [2], above 3.2 µM; in series [3] (2'-NH2 all pyrimidines), above 1 µM.
Turning to “GGGAGUCUCGUUGGUCGUUGAACGAUCCUUCGACAGGAGGCUCA [hCG ligand 9TR1]”, the Kd in series [3] (2'-F all pyrimidines, SBB buffer, variant of hCG ligand 9) is above 80 µM; in series [3] (2'-F all pyrimidines, in urine, variant of hCG ligand 9), above 80 µM.
Take “GGGAGACAAGAAUAAACGCUCAACAGCGAUUGAACGAUCCUUUCAGCUGAUGGGUAUGGGAUUCGACAGGAGGCUCACAACAGGC [Class 1 ligand 36]”: in series [4] (0.60% bound at 100 nM), the binding result is given as “binds”.
Consider “GGGAGACAAGAAUAAACGCUCAACAGCGAUUGAACGACCUUCAGCUGAUGGGUAUGGGAUUCGACAGGAGGCUCACAACAGGC [Class 1 ligand 41]”, for which, in series [4] (0.61% bound at 100 nM, mutated conserved region), the binding result is recorded as “binds”.
In the case of “GGGAGACAAGAAUAAACGCUCAACAGUGAUUGAACGAUCCUUUCAGCUGGUGGGUAUGGGGUUCGACAGGAGGCUCACAACAGGC [Class 1 ligand 25]”, in series [4] (2.20% bound at 100 nM), the binding result is “binds”.
As to “GGGAGACAAGAAUAAACGCUCAAUUUGGAAGAUCCCAGAGUCUCGUUGGUCGUUGAACGAUCCUUCGACAGGAGGCUCACAACAGGC [Class 1 ligand 6]”, the binding result in series [4] (4.64% bound at 100 nM) was “binds”.
On to “GGGAGACAAGAAUAAACGCUCAAUUUGGAAGAUCCCAGAGUCUCGUUGGUCGUUAAACGAUCCUUCGACAGGAGGCUCACAACAGGC [Class 1 ligand 33]”, for which the binding result in series [4] (0.03% bound at 100 nM, mutated conserved region) is reported as “binds”.
For the sequence “GGGAGACAAGAAUAAACGCUCAAAAGUCCCUCGCAGAGCUUGCUGGUUCGAUUGAACGAUCCUUUCGACAGGAGGCUCACAACAGGC [Class 1 ligand 19]”, the binding result in series [4] (0.84% bound at 100 nM) was “binds”.

The term Kd denotes the constant that tells how readily two partners part at equilibrium. Low readings indicate a tighter complex, high ones a looser complex.

The values are drawn from patent US5849890.
